Source: publication PMC7010728

Chains of the proteins cited; added tags and fusions are not shown.
UniProt Q9Y4E1: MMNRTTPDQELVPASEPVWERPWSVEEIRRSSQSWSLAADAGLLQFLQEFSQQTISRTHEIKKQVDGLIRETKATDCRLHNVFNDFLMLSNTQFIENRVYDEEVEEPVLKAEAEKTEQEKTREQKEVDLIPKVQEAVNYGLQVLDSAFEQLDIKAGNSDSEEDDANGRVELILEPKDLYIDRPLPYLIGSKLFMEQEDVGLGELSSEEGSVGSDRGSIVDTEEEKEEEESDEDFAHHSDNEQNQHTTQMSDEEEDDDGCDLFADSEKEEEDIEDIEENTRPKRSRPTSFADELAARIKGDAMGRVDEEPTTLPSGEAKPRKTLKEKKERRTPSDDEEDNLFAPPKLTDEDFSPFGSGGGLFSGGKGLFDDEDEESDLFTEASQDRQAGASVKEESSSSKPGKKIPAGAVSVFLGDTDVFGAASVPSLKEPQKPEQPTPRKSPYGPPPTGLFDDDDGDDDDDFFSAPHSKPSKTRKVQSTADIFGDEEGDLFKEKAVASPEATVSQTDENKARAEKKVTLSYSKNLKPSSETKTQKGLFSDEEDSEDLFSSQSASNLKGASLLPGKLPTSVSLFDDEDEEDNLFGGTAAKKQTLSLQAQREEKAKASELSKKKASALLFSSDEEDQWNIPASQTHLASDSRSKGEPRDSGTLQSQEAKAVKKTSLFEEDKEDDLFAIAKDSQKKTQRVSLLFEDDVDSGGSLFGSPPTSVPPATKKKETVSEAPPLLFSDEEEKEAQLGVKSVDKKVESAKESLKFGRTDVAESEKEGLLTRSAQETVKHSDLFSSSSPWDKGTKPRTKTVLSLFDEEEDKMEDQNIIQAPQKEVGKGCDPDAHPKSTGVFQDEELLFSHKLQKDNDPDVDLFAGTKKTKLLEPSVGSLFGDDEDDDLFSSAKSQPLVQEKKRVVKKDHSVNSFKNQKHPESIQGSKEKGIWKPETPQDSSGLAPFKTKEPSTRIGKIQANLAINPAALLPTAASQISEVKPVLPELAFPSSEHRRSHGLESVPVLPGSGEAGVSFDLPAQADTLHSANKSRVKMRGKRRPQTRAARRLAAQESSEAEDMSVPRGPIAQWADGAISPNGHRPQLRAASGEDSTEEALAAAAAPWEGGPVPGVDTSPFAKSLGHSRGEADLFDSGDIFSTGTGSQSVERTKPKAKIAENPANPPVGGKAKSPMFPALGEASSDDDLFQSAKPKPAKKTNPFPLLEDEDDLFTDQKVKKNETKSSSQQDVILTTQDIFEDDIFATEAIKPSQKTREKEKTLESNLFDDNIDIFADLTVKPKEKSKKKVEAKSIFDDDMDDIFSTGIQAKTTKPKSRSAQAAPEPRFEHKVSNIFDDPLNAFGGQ
UniProt Q567U6: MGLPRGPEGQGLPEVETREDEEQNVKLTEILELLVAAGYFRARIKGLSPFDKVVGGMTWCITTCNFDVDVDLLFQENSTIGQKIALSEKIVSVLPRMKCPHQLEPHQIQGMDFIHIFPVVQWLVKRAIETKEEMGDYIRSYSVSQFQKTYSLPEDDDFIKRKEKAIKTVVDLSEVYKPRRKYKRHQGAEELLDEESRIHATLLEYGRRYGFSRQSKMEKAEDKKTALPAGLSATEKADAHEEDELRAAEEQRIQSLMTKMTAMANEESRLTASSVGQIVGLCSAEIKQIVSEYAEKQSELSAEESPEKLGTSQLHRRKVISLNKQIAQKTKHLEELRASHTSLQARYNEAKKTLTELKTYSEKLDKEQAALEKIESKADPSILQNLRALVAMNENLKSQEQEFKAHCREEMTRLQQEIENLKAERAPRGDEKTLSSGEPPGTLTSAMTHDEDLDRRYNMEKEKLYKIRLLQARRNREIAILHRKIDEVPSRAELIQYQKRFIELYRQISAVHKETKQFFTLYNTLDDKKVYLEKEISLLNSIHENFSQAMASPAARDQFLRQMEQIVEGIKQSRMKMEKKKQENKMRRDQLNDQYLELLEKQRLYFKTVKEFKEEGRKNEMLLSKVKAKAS
UniProt O60826: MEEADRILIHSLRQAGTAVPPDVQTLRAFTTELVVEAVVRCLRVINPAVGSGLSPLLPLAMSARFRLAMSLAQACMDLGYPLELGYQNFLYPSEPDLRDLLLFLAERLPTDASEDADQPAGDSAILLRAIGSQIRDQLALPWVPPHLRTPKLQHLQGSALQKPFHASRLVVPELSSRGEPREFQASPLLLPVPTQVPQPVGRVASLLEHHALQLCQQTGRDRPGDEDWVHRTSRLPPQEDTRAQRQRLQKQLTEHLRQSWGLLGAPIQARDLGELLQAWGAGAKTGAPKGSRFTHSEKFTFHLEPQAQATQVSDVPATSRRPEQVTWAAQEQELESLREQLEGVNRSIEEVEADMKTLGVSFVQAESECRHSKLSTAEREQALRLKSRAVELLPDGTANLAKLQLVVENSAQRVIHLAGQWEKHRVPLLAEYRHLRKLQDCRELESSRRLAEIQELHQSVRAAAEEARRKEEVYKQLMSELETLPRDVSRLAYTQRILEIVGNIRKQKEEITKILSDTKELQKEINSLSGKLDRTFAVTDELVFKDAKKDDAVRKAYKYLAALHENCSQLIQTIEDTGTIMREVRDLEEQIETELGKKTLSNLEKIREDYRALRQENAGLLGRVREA

Biological target: FLAG-tagged WASHC2C (UniProt Q9Y4E1)
Test: affinity purification with mass spectrometry; anti-FLAG antibody on protein A/G magnetic beads, lysates of mock and HCMV-infected (72 hpi) fibroblasts transfected with FLAG-WASHC2C; 1 h at 4 °C; lysis buffer 20 mM HEPES-KOH pH 7.4, 110 mM potassium acetate, 0.1% Tween-20, 0.2% Triton X-100; co-isolated proteins quantified by targeted MS (PRM), normalised to WASHC2C peptides

| Substance | binding |
| --- | --- |
| coiled-coil domain-containing protein 93 (from UniProt Q567U6 1-631) | binds |
| coiled-coil domain-containing protein 22 (from UniProt O60826 1-627) | binds |

These are yes or no findings as the source states them, for the method shown. In cells and extracts the contact can be indirect. A yes stands for co-enrichment or nearness to the bait. Other partners may have been found.
